Measured values reported in patent publication US9784752B2, “Venlafaxine assay” (Randox Laboratories, Limited, priority 2012, dated 2017).

Tested on: polyclonal antibody raised to Immunogen II
Assay: Competitive biochip immunoassay (Evidence Investigator) with Hapten-1 HRP detecting agent
Assay type: binding, sheep
Settings: concentration causing 50% displacement of signal; competition with Hapten-1 HRP for immobilised polyclonal antibody; 30 minutes at 30° C.
Experimental: A semi-automated Evidence Investigator analyser (Randox Laboratories Ltd., Crumlin, UK) was used as the platform for a biochip assay for the detection of venlafaxine and O-desmethylvenlafaxine. Immunogen II was administered to adult sheep on a monthly basis to provide target-specific polyclonal antisera. IgG was extracted from the antisera, and the purified antibody was immobilised on a biochip (9 mm×9 mm). The assay is based on competition for binding sites of a polyclonal antibody between Hapten-1HRP detecting agent (Example 10) and venlafaxine and O-desmethylvenlafaxine and potential cross-reactants. The antibody was immobilised and stabilised onto the biochip surface as previously described (Fitzgerald et al., 2005). Assay diluent (155 μL), calibrator/venlafaxine and O-desmethylvenlafaxine or potential cross-reactant (25 μL) followed by Hapten-1 HRP detecting agent (120 μL) were added to the appropriate biochip. The biochips were then incubated for 30 minutes at 30° C. on a thermoshaker set at 370 rpm. The biochips were then subjected to 2 quick wash cycles using the wash buffer provided, followed by 4×2 minute wash cycles. 250 μL of signal (1:1 luminol+peroxide, v/v) was then added to each biochip, and after 2 minutes the biochip carrier was imaged in the Evidence Investigator analyser. […]

With `COc1cccc(C2(O)CCCCC2CN(C)C)c1` (stereo not shown) [Tramadol] as the compound, how does the “IC50” value read?
The value was >0.32 µg/mL.
